Results reported in PubChem BioAssay AID504847 (National Center for Advancing Translational Sciences (NCATS), 2011).
In all, about 400,000 compounds went through this assay and about 3,700 (0.93%) were called active. This list was built around the results that the source calls inconclusive (neither active nor inactive); the mix of calls is not that of the screen. The call rests on the fitted dose curve; in most records, active means well fitted inhibition curve with a large enough effect; inconclusive means small, poorly fitted or top-dose-only effect, or another doubt; inactive means no such curve, though single readings can be large or run the other way. Potencies beside an inconclusive call are fits to weak or partial responses and may not hold up. A structure can be active in one record and inactive in another.

By UniProt entry, the sequences of proteins in these tests, tags left out. Where a name states a change or a piece, a line headed by the entry shows the natural chain unless it says otherwise.
UniProt P11473: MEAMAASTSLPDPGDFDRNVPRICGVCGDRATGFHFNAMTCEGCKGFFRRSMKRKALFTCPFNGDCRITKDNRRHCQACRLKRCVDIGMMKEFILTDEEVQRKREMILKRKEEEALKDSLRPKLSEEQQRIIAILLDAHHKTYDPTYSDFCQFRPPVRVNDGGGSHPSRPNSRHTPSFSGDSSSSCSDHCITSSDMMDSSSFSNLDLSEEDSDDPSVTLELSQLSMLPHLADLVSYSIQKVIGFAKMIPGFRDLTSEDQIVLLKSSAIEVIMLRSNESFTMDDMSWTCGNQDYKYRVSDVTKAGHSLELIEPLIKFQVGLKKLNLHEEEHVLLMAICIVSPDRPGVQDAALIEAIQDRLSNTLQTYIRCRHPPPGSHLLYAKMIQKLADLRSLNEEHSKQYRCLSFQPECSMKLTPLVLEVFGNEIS

molecular target: Vitamin D3 receptor (Homo sapiens) (UniProt P11473); assay: Inhibitors of the vitamin D receptor (VDR): qHTS; conditions: VDR-SRC2-3 peptide fluorescence polarization, 2 h; max response, negative = inhibition: hits give low values
In short: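 Two reagent solutions held at 4 deg C in the dark were dispensed, compounds pinned at 23 nl, and the mixture incubated 2 h at room temperature. Read-out: fluorescence polarization of VDR–SRC2-3 peptide binding.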
On the % scale 0 is the no-effect control and ±100 the full control effect; potency means the concentration at half of the fitted maximal effect.

Row | Structure (SMILES) | Potency | max response, negative = inhibition
1 | COc1ccc(OCc2nnc(SCC(=O)N(C)Cc3ccccc3)n2N)cc1 | active: 79.4 µM | –
2 | COc1c(Br)cc(Br)cc1/C=N/n1c(C)nnc1C | inconclusive: 28.2 µM [inhibitor, single point] | –
3 | Cc1ccc2c(n1)CC(C)(C)C/C2=N\O | – | inactive: -4.18%
4 | Cc1[nH][nH]c(=O)c1C(c1c(C)[nH][nH]c1=O)c1cn(Cc2ccccc2Cl)c2ccccc12 | inconclusive: 56.2 µM [inhibitor, partial curve, poor fit] | –
5 | O=C(CCS(=O)(=O)c1ccccc1)N(CCCN1CCOCC1)c1nc2ccccc2s1 | inconclusive: 100 µM [inhibitor, single point] | –
6 | CCc1ccc(C2C(C#N)=C(N)SC(N)=C2C#N)cc1 | inconclusive: 56.2 µM [inhibitor, partial curve, poor fit] | –
7 | NC1=NC(=Nc2ccc(Br)cc2)c2ccccc21 | inconclusive: 70.8 µM [inhibitor, partial curve] | –
8 | Cc1cc(C(=O)Nn2cnnc2)ccc1[N+](=O)[O-] | inconclusive: 50.1 µM [inhibitor, partial curve, poor fit] | –
9 | Cc1n[nH]c(=O)c2c(NC(=O)CSc3nn(-c4ccc(F)cc4)c(=S)s3)oc(C)c12 | inconclusive: 89.1 µM [inhibitor, single point] | –
10 | Cc1ccc(SCCC(=O)OC(C(=O)NC(N)=O)C(C)C)cc1 (configuration not stated) | inconclusive: 35.5 µM [inhibitor, single point] | –
11 | COCc1nnc(NC(=O)c2ccc(S(=O)(=O)N(C)c3ccccc3)cc2)o1 | – | inactive: -1.09%
12 | CCCN1C(=O)CN(C2CCCCC2)C(=O)C1c1ccc(OC)c(OC)c1 (configuration not stated) | – | inactive: 2.15%
13 | CN(Cc1cc2ccccc2[nH]c1=O)S(=O)(=O)c1ccccc1 | inconclusive: 11.2 µM [inhibitor, partial curve, poor fit] | –
14 | CN(C(=O)c1cn2ccccc2n1)c1c(N)n(Cc2ccccc2)c(=O)[nH]c1=O | inconclusive: 89.1 µM [inhibitor, single point] | –
15 | COC(=O)Cc1c(C)[nH]n(-c2cc(Cl)cc(Cl)c2)c1=O | inconclusive: 89.1 µM [inhibitor, partial curve, poor fit] | –
16 | O=c1c2c([N+](=O)[O-])cc([N+](=O)[O-])cc2sn1Cc1ccccc1 | active: 22.4 µM | –
17 | O=C(CNC(=O)c1cccs1)N/N=C/c1ccc(O)cc1O | inconclusive: 100 µM [inhibitor, single point] | –
18 | N#CC1=C(N)Oc2ccc3ccc(O)cc3c2C1c1ccsc1 (configuration not stated) | – | inactive: -20.5%
19 | C=C(C)CNC(=S)Nc1sc2c(c1C(=O)OCC)CC(C)(C)OC2 | inconclusive: 56.2 µM [inhibitor, partial curve, poor fit] | –
20 | CN1CCN(c2ccc(Cl)cc2NC(=O)CC2OC(=O)c3ccccc32)CC1 (configuration not stated) | inconclusive: 89.1 µM [inhibitor, single point] | –
21 | COc1ccc(OC)c(C(=O)/C=C/c2cccnc2)c1 | inconclusive: 22.4 µM [inhibitor, full curve] | –
22 | COc1ccc(C2/C=C\CC(NC(=O)OCC3c4ccccc4-c4ccccc43)CC(=O)N2Cc2ccccc2F)cc1 (configuration not stated) | inconclusive: 79.4 µM [inhibitor, partial curve, poor fit] | inactive: -20.9%

Copied from above, nos. 19–20
Row | Structure (SMILES) | Potency | max response, negative = inhibition
19 | C=C(C)CNC(=S)Nc1sc2c(c1C(=O)OCC)CC(C)(C)OC2 | inconclusive: 56.2 µM [inhibitor, partial curve, poor fit] | –
20 | CN1CCN(c2ccc(Cl)cc2NC(=O)CC2OC(=O)c3ccccc32)CC1 (configuration not stated) | inconclusive: 89.1 µM [inhibitor, single point] | –

Later entries

Row | Structure (SMILES) | Potency | max response, negative = inhibition
23 | CCCCNC(=O)c1sc(=S)n2c1[nH]c(=O)c1ccc(C(=O)NCCc3ccc(OC)c(OC)c3)cc12 | inconclusive: 100 µM [inhibitor, partial curve, poor fit] | –
24 | Cc1ccc(OCCCN2C(=O)C(=O)c3cccc(C)c32)cc1 | inconclusive: 15.8 µM [inhibitor, full curve] | –
25 | CC1=NN(c2ccc(C)cc2)C(=O)/C1=C\C=C\c1ccccc1 | active: 79.4 µM | –
26 | CC1=C(C(=O)Nc2cc(C(=O)N3CCN(c4cccc(C)c4)C(C)C3)ccc2C)SCCO1 (configuration not stated) | – | inactive: -12.2%
27 | CCOC(=O)c1c(NC(=O)CSc2nnnn2-c2ccccc2OCC)sc2c1CC(C)(C)NC2(C)C | – | inactive: -3.55%
28 | COc1ccc(Cl)cc1Nc1nc(-c2sc(NC(=O)C(C)(C)C)nc2C)cs1 | inconclusive: 63.1 µM [inhibitor, partial curve, poor fit] | –
29 | CC1(C)CC(=O)C(CS(=O)(=O)c2ccccc2)=C(O)C1 | inconclusive: 56.2 µM [inhibitor, partial curve, poor fit] | –
30 | CCCSc1cc(NCCOC(C)=O)c([N+](=O)[O-])c2nonc12 | inconclusive: 100 µM [inhibitor, partial curve, poor fit] | –
31 | CCC(C)(C)n1nnnc1C(c1cccs1)N1CCCCC1 (configuration not stated) | inconclusive: 89.1 µM [inhibitor, single point] | –
32 | Cc1ccccc1N1CCN(C(=S)c2ccc(-c3ccc([N+](=O)[O-])cc3)o2)CC1 | inconclusive: 89.1 µM [inhibitor, single point] | –
33 | COc1ccc(C(=O)CCN2CCN(c3ccccc3F)CC2)cc1 | active: 22.4 µM | –
34 | COc1cc(C2NC(=O)c3ccccc3O2)ccc1OC(C)C (configuration not stated) | inconclusive: 89.1 µM [inhibitor, single point] | –
35 | O=C(c1ccncc1)N1CCC2(CCCN(c3ccc(-c4ccccc4)cc3)C2)CC1 | inconclusive: 39.8 µM [inhibitor, partial curve] | –
36 | O=C(CCSCCC(=O)NCc1ccco1)NCc1ccco1 | inconclusive: 63.1 µM [inhibitor, partial curve, poor fit] | –
37 | CCOc1ccc(S(=O)(=O)n2cnc3cc(C)c(C)cc32)cc1 | – | inactive: 0.509%
38 | Cn1c(CC(=O)Nc2ccccc2C(F)(F)F)c(Sc2ccccc2)c2ccccc21 | – | inactive: -6.52%
39 | CCOC(=O)c1c(N2C(=O)Nc3cc(Cl)c(Cl)cc3N2O)sc2c1CCCCC2 | inconclusive: 89.1 µM [inhibitor, partial curve] | –
40 | CC(NC(=S)NC1CCC(C(C)(C)C)CC1)c1ccccc1 (configuration not stated) | – | inactive: 3.9%
41 | O=C(CC1CCCCC1)NCCOc1ccccc1 | inconclusive: 79.4 µM [inhibitor, partial curve, poor fit] | –
42 | O=C(NC(=S)Nc1ccc(S(=O)(=O)Nc2nccs2)cc1)c1ccccc1F | inconclusive: 79.4 µM [inhibitor, single point] | –
43 | Cc1ccc(S(=O)(=O)n2c([N+](=O)[O-])cnc2C)c(C)c1C | active: 44.7 µM | –
44 | OCC1(Cc2ccccc2)CCN(C2CCN(c3ccc(F)c(F)c3)CC2)CC1 | – | inactive: -16.6%

A different layout for some results above.

| Row | Structure (SMILES) | Potency | max response, negative = inhibition |
| --- | --- | --- | --- |
| 10 | Cc1ccc(SCCC(=O)OC(C(=O)NC(N)=O)C(C)C)cc1 (configuration not stated) | inconclusive: 35.5 µM [inhibitor, single point] | – |
| 11 | COCc1nnc(NC(=O)c2ccc(S(=O)(=O)N(C)c3ccccc3)cc2)o1 | – | inactive: -1.09% |
| 12 | CCCN1C(=O)CN(C2CCCCC2)C(=O)C1c1ccc(OC)c(OC)c1 (configuration not stated) | – | inactive: 2.15% |

More compounds follow:

Row | Structure (SMILES) | Potency | max response, negative = inhibition
45 | O=C(O)C1=C(CSc2nnnn2CS(=O)(=O)O)CS[C@@H]2[C@H](NC(=O)[C@H](O)c3ccccc3)C(=O)N12 | active: 39.8 µM | –
46 | O=C(c1ccc(C(F)(F)F)n(Cc2ccc(Cl)cc2)c1=O)N1CCOCC1 | inconclusive: 10 µM [inhibitor, partial curve, poor fit] | –
47 | Cc1cc(Nc2ccc(F)c(Cl)c2)n2ncnc2n1 | inconclusive: 63.1 µM [inhibitor, partial curve, poor fit] | –
48 | Nc1nc(SCC(=O)N2CCN(c3ccc(F)cc3)CC2)n[nH]1 | inconclusive: 79.4 µM [inhibitor, single point] | –
49 | O=C1c2ccccc2C(=O)c2c(Nc3ccc(CCO)cc3)ccc(O)c21 | inconclusive: 89.1 µM [inhibitor, partial curve, poor fit] | –
50 | Cc1ccc2oc(-c3ccc(Cl)c(NC(=O)c4ccc(OC(C)C)cc4)c3)nc2c1 | – | inactive: -24.3%
51 | Oc1cc2ccccc2cc1-c1n[nH]c(=S)o1 | inconclusive: 79.4 µM [inhibitor, single point] | –
52 | O=C(COC(=O)c1cc(S(=O)(=O)N2CCOCC2)ccc1F)Nc1ccc(Cl)cn1 | inconclusive: 89.1 µM [inhibitor, partial curve, poor fit] | –
53 | CN(C)c1oc(-c2ccccc2[N+](=O)[O-])nc1C#N | active: 31.6 µM | –
54 | CC(OC(=O)CCCN=C1NS(=O)(=O)c2ccccc21)C(=O)N(C)c1ccccc1 (configuration not stated) | – | inactive: -3.79%
55 | Cc1cc(C(=O)CN2C(=O)NC3(CCCc4ccccc43)C2=O)c(C)n1Cc1cccs1 (configuration not stated) | – | inactive: -3.86%
56 | CC(C)(C)C1CCC(C(=O)Nc2ccccc2)CC1 (configuration not stated) | – | inactive: -6.51%
57 | Cc1cc(C)c(C(=O)COc2cccnc2[N+](=O)[O-])cc1C | inconclusive: 56.2 µM [inhibitor, partial curve, poor fit] | –
58 | O=C1c2ccccc2C(=O)c2c(O)c(O)cc(O)c21 | active: 50.1 µM | –
59 | COc1ccc(NC(=O)C(=O)NCCC2CCCCN2S(=O)(=O)c2cccs2)cc1 (configuration not stated) | – | inactive: -0.72%
60 | Cc1ccc(NC(=O)C(Cc2ccccc2)n2cccc2)cc1C (configuration not stated) | – | inactive: 2.09%
61 | CCCN(C(=O)c1cc2c(s1)-c1c(C)cccc1OC2)c1ccc(OCC)cc1 | – | inactive: -20.6%
62 | N=C(N)SCc1nc2ccccc2c(=O)n1-c1ccccc1 | inconclusive: 44.7 µM [inhibitor, partial curve, poor fit] | –
63 | O=C1C(=Cc2ccco2)CCC1=Cc1ccco1 | inconclusive: 56.2 µM [inhibitor, partial curve, poor fit] | –
64 | Cc1ccc2c(c1)[nH]c1c(=O)n(Cc3ccco3)cnc12 | inconclusive: 31.6 µM [inhibitor, single point] | –
65 | CCOC(=O)C1=CN(Cc2cccc(Br)c2)S(=O)(=O)N(CC)C1C (configuration not stated) | – | inactive: -4.2%
66 | Cc1cnc(CNc2ncnc3ccc(-c4ccc(N(C)C)cc4)cc23)cn1 | inconclusive: 50.1 µM [inhibitor, partial curve] | –
